This passage reports binding results from publication PMC8860612.

Chains of the proteins cited; added tags and fusions are not shown.
UniProt Q06609: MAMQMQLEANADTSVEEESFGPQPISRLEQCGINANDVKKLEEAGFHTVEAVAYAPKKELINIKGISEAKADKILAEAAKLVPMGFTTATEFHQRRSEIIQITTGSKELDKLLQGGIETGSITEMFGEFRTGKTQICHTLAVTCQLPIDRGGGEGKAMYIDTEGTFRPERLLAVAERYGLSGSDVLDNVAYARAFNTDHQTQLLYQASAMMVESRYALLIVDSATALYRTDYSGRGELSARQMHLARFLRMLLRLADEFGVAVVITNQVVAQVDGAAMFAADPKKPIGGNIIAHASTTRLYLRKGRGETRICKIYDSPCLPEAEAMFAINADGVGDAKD

For experiment [1], the target named is endogenous RAD51 (HeLa) (human (endogenous in HeLa)) (UniProt Q06609). Description: proximity ligation; Duolink in situ PLA in fixed HeLa cells, mock or 5 Gy IR (2 h), rabbit anti-RAD51 and mouse anti-TOPORS primary antibodies.
For experiment [2] the target is unchanged. Description: co-IP; endogenous proteins, HeLa whole cell lysates (RIPA buffer), cells with or without 5 Gy IR or 2 mM HU, control or TOPORS-depleted; immunoprecipitation with anti-RAD51 or anti-TOPORS antibody, immunoblot.
For experiment [3], the target named is 3xHA-RAD51-WT (HEK293T) (human) (UniProt Q06609). Description: co-IP; HEK293T cells transfected with HA-RAD51 and GFP-TOPORS (WT, T515A or T515E), treated with 5 Gy IR; immunoprecipitation and immunoblot.
Experiment [4] has as its target 6xHis-RAD51 (bacterially purified) (human) (UniProt Q06609). Description: pull-down; 6xHis-RAD51 immobilised on Ni-NTA agarose, incubated with 3 ug purified bacterial TOPORS at 4 C overnight, TEN100 buffer (20 mM Tris pH 7.4, 0.1 mM EDTA, 100 mM NaCl); western blot; both purified. Background: Immunoblotting shows a protein as a band on a membrane.

These are yes or no findings as the source states them, for the method shown. For part of these data: Binding seen in cells or lysates may run through a third protein. Some results given as binding are weak or reduced against the parent protein; the word gives no strength. For part of these data: Tags and fused reporters may be left off the sequences shown.

B1: endogenous TOPORS (HeLa) (protein, UniProt Q9NS56 1-1045)
chain: MGSQPPLGSPLSREEGEAPPPAPASEGRRRSRRVRLRGSCRHRPSFLGCRELAASAPARPAPASSEIMASAAKEFKMDNFSPKAGTSKLQQTVPADASPDSKCPICLDRFDNVSYLDRCLHKFCFRCVQEWSKNKAECPLCKQPFDSIFHSVRAEDDFKEYVLRPSYNGSFVTPDRRFRYRTTLTRERNASVYSPSGPVNRRTTTPPDSGVLFEGLGISTRPRDVEIPQFMRQIAVRRPTTADERSLRKIQEQDIINFRRTLYRAGARVRNIEDGGRYRDISAEFFRRNPACLHRLVPWLKRELTVLFGAHGSLVNIVQHIIMSNVTRYDLESQAFVSDLRPFLLNRTEHFIHEFISFARSPFNMAAFDQHANYDCPAPSYEEGSHSDSSVITISPDEAETQELDINVATVSQAPWDDETPGPSYSSSEQVHVTMSSLLNTSDSSDEELVTGGATSQIQGVQTNDDLNNDSDDSSDNCVIVGFVKPLAERTPELVELSSDSEDLGSYEKMETVKTQEQEQSYSSGDSDVSRCSSPHSVLGKDEQINKGHCDSSTRIKSKKEEKRSTSLSSPRNLNSSVRGDRVYSPYNHRHRKRGRSRSSDSRSQSRSGHDQKNHRKHHGKKRMKSKRSRSRESSRPRGRRDKKRSRTRDSSWSRRSQTLSLSSESTSRSRSRSSDHGKRRSRSRNRDRYYLRNNYGSRYKWEYTYYSRNKDRDGYESSYRRRTLSRAHYSRQSSSPEFRVQSFSERTNARKKNNHSERKYYYYERHRSRSLSSNRSRTASTGTDRVRNEKPGGKRKYKTRHLEGTNEVAQPSREFASKAKDSHYQKSSSKLDGNYKNESDTFSDSRSSDRETKHKRRKRKTRSLSVEIVYEGKATDTTKHHKKKKKKHKKKHKKHHGDNASRSPVVITIDSDSDKDSEVKEDTECDNSGPQDPLQNEFLAPSLEPFETKDVVTIEAEFGVLDKECDIATLSNNLNNANKTVDNIPPLAASVEQTLDVREESTFVSDLENQPSNIVSLQTEPSRQLPSPRTSLMSVCLGRDCDMS
With B1, the binding result in experiment [1] and in experiment [2] was “binds” each time.

B2: GFP-TOPORS-T515A (HEK293T) (protein, UniProt Q9NS56 1-1045)
chain: MGSQPPLGSPLSREEGEAPPPAPASEGRRRSRRVRLRGSCRHRPSFLGCRELAASAPARPAPASSEIMASAAKEFKMDNFSPKAGTSKLQQTVPADASPDSKCPICLDRFDNVSYLDRCLHKFCFRCVQEWSKNKAECPLCKQPFDSIFHSVRAEDDFKEYVLRPSYNGSFVTPDRRFRYRTTLTRERNASVYSPSGPVNRRTTTPPDSGVLFEGLGISTRPRDVEIPQFMRQIAVRRPTTADERSLRKIQEQDIINFRRTLYRAGARVRNIEDGGRYRDISAEFFRRNPACLHRLVPWLKRELTVLFGAHGSLVNIVQHIIMSNVTRYDLESQAFVSDLRPFLLNRTEHFIHEFISFARSPFNMAAFDQHANYDCPAPSYEEGSHSDSSVITISPDEAETQELDINVATVSQAPWDDETPGPSYSSSEQVHVTMSSLLNTSDSSDEELVTGGATSQIQGVQTNDDLNNDSDDSSDNCVIVGFVKPLAERTPELVELSSDSEDLGSYEKMETVKAQEQEQSYSSGDSDVSRCSSPHSVLGKDEQINKGHCDSSTRIKSKKEEKRSTSLSSPRNLNSSVRGDRVYSPYNHRHRKRGRSRSSDSRSQSRSGHDQKNHRKHHGKKRMKSKRSRSRESSRPRGRRDKKRSRTRDSSWSRRSQTLSLSSESTSRSRSRSSDHGKRRSRSRNRDRYYLRNNYGSRYKWEYTYYSRNKDRDGYESSYRRRTLSRAHYSRQSSSPEFRVQSFSERTNARKKNNHSERKYYYYERHRSRSLSSNRSRTASTGTDRVRNEKPGGKRKYKTRHLEGTNEVAQPSREFASKAKDSHYQKSSSKLDGNYKNESDTFSDSRSSDRETKHKRRKRKTRSLSVEIVYEGKATDTTKHHKKKKKKHKKKHKKHHGDNASRSPVVITIDSDSDKDSEVKEDTECDNSGPQDPLQNEFLAPSLEPFETKDVVTIEAEFGVLDKECDIATLSNNLNNANKTVDNIPPLAASVEQTLDVREESTFVSDLENQPSNIVSLQTEPSRQLPSPRTSLMSVCLGRDCDMS
For B2, in experiment [3], the binding entry was “binds”.

B3: GFP-TOPORS-WT (HEK293T) (protein, UniProt Q9NS56 1-1045)
chain: MGSQPPLGSPLSREEGEAPPPAPASEGRRRSRRVRLRGSCRHRPSFLGCRELAASAPARPAPASSEIMASAAKEFKMDNFSPKAGTSKLQQTVPADASPDSKCPICLDRFDNVSYLDRCLHKFCFRCVQEWSKNKAECPLCKQPFDSIFHSVRAEDDFKEYVLRPSYNGSFVTPDRRFRYRTTLTRERNASVYSPSGPVNRRTTTPPDSGVLFEGLGISTRPRDVEIPQFMRQIAVRRPTTADERSLRKIQEQDIINFRRTLYRAGARVRNIEDGGRYRDISAEFFRRNPACLHRLVPWLKRELTVLFGAHGSLVNIVQHIIMSNVTRYDLESQAFVSDLRPFLLNRTEHFIHEFISFARSPFNMAAFDQHANYDCPAPSYEEGSHSDSSVITISPDEAETQELDINVATVSQAPWDDETPGPSYSSSEQVHVTMSSLLNTSDSSDEELVTGGATSQIQGVQTNDDLNNDSDDSSDNCVIVGFVKPLAERTPELVELSSDSEDLGSYEKMETVKTQEQEQSYSSGDSDVSRCSSPHSVLGKDEQINKGHCDSSTRIKSKKEEKRSTSLSSPRNLNSSVRGDRVYSPYNHRHRKRGRSRSSDSRSQSRSGHDQKNHRKHHGKKRMKSKRSRSRESSRPRGRRDKKRSRTRDSSWSRRSQTLSLSSESTSRSRSRSSDHGKRRSRSRNRDRYYLRNNYGSRYKWEYTYYSRNKDRDGYESSYRRRTLSRAHYSRQSSSPEFRVQSFSERTNARKKNNHSERKYYYYERHRSRSLSSNRSRTASTGTDRVRNEKPGGKRKYKTRHLEGTNEVAQPSREFASKAKDSHYQKSSSKLDGNYKNESDTFSDSRSSDRETKHKRRKRKTRSLSVEIVYEGKATDTTKHHKKKKKKHKKKHKKHHGDNASRSPVVITIDSDSDKDSEVKEDTECDNSGPQDPLQNEFLAPSLEPFETKDVVTIEAEFGVLDKECDIATLSNNLNNANKTVDNIPPLAASVEQTLDVREESTFVSDLENQPSNIVSLQTEPSRQLPSPRTSLMSVCLGRDCDMS
With B3, the binding entry in experiment [3] was “binds”.

B4: GFP-TOPORS-T515E (HEK293T) (protein, UniProt Q9NS56 1-1045)
chain: MGSQPPLGSPLSREEGEAPPPAPASEGRRRSRRVRLRGSCRHRPSFLGCRELAASAPARPAPASSEIMASAAKEFKMDNFSPKAGTSKLQQTVPADASPDSKCPICLDRFDNVSYLDRCLHKFCFRCVQEWSKNKAECPLCKQPFDSIFHSVRAEDDFKEYVLRPSYNGSFVTPDRRFRYRTTLTRERNASVYSPSGPVNRRTTTPPDSGVLFEGLGISTRPRDVEIPQFMRQIAVRRPTTADERSLRKIQEQDIINFRRTLYRAGARVRNIEDGGRYRDISAEFFRRNPACLHRLVPWLKRELTVLFGAHGSLVNIVQHIIMSNVTRYDLESQAFVSDLRPFLLNRTEHFIHEFISFARSPFNMAAFDQHANYDCPAPSYEEGSHSDSSVITISPDEAETQELDINVATVSQAPWDDETPGPSYSSSEQVHVTMSSLLNTSDSSDEELVTGGATSQIQGVQTNDDLNNDSDDSSDNCVIVGFVKPLAERTPELVELSSDSEDLGSYEKMETVKEQEQEQSYSSGDSDVSRCSSPHSVLGKDEQINKGHCDSSTRIKSKKEEKRSTSLSSPRNLNSSVRGDRVYSPYNHRHRKRGRSRSSDSRSQSRSGHDQKNHRKHHGKKRMKSKRSRSRESSRPRGRRDKKRSRTRDSSWSRRSQTLSLSSESTSRSRSRSSDHGKRRSRSRNRDRYYLRNNYGSRYKWEYTYYSRNKDRDGYESSYRRRTLSRAHYSRQSSSPEFRVQSFSERTNARKKNNHSERKYYYYERHRSRSLSSNRSRTASTGTDRVRNEKPGGKRKYKTRHLEGTNEVAQPSREFASKAKDSHYQKSSSKLDGNYKNESDTFSDSRSSDRETKHKRRKRKTRSLSVEIVYEGKATDTTKHHKKKKKKHKKKHKKHHGDNASRSPVVITIDSDSDKDSEVKEDTECDNSGPQDPLQNEFLAPSLEPFETKDVVTIEAEFGVLDKECDIATLSNNLNNANKTVDNIPPLAASVEQTLDVREESTFVSDLENQPSNIVSLQTEPSRQLPSPRTSLMSVCLGRDCDMS
For B4, in experiment [3], the binding result was “binds”.

B5: GST-TOPORS (bacterially purified) (protein, UniProt Q9NS56 1-1045)
chain: MGSQPPLGSPLSREEGEAPPPAPASEGRRRSRRVRLRGSCRHRPSFLGCRELAASAPARPAPASSEIMASAAKEFKMDNFSPKAGTSKLQQTVPADASPDSKCPICLDRFDNVSYLDRCLHKFCFRCVQEWSKNKAECPLCKQPFDSIFHSVRAEDDFKEYVLRPSYNGSFVTPDRRFRYRTTLTRERNASVYSPSGPVNRRTTTPPDSGVLFEGLGISTRPRDVEIPQFMRQIAVRRPTTADERSLRKIQEQDIINFRRTLYRAGARVRNIEDGGRYRDISAEFFRRNPACLHRLVPWLKRELTVLFGAHGSLVNIVQHIIMSNVTRYDLESQAFVSDLRPFLLNRTEHFIHEFISFARSPFNMAAFDQHANYDCPAPSYEEGSHSDSSVITISPDEAETQELDINVATVSQAPWDDETPGPSYSSSEQVHVTMSSLLNTSDSSDEELVTGGATSQIQGVQTNDDLNNDSDDSSDNCVIVGFVKPLAERTPELVELSSDSEDLGSYEKMETVKTQEQEQSYSSGDSDVSRCSSPHSVLGKDEQINKGHCDSSTRIKSKKEEKRSTSLSSPRNLNSSVRGDRVYSPYNHRHRKRGRSRSSDSRSQSRSGHDQKNHRKHHGKKRMKSKRSRSRESSRPRGRRDKKRSRTRDSSWSRRSQTLSLSSESTSRSRSRSSDHGKRRSRSRNRDRYYLRNNYGSRYKWEYTYYSRNKDRDGYESSYRRRTLSRAHYSRQSSSPEFRVQSFSERTNARKKNNHSERKYYYYERHRSRSLSSNRSRTASTGTDRVRNEKPGGKRKYKTRHLEGTNEVAQPSREFASKAKDSHYQKSSSKLDGNYKNESDTFSDSRSSDRETKHKRRKRKTRSLSVEIVYEGKATDTTKHHKKKKKKHKKKHKKHHGDNASRSPVVITIDSDSDKDSEVKEDTECDNSGPQDPLQNEFLAPSLEPFETKDVVTIEAEFGVLDKECDIATLSNNLNNANKTVDNIPPLAASVEQTLDVREESTFVSDLENQPSNIVSLQTEPSRQLPSPRTSLMSVCLGRDCDMS
B5: the binding entry in experiment [4] is on record as “binds”.
